SMILES strings stand for the structures. ≈ marks a conversion by molar mass, not a printed value.

Here are results for one compound from ChEMBL document CHEMBL4261608, “Design, synthesis and anti-mycobacterial activity evaluation of benzofuran-isatin hybrids” (Eur J Med Chem, 2018).

In this assay the test system is Mycobacterium tuberculosis. The assay is described as follows: Antimycobacterial activity against Mycobacterium tuberculosis H37Rv incubated for 7 days by rapid direct susceptibility test. Conditions: 168 h. Type of assay: functional. In outline: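 Two-fold dilutions of compound mixed with MTB suspension holding 4×10^-3 mg cells (H37Rv, or MDR strain resistant to ethambutol, INH and RIF) in 48-well plates. Incubation at 37 °C in a wet box. Cells in each well observed by continuous visual high-magnification system, re-read 7 days later. MIC taken as lowest concentration inhibiting visible growth.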

`CO[C@H]1/C=C/O[C@@]2(C)Oc3c(C)c(O)c4c(O)c(c(/C=N/N5CCN(C)CC5)c(O)c4c3C2=O)NC(=O)/C(C)=C\C=C\[C@H](C)[C@H](O)[C@@H](C)[C@@H](O)[C@@H](C)[C@H](OC(C)=O)[C@@H]1C` [RIFAMPIN] showed an MIC of 0.5 µg/mL (≈ 0.608 µM).
